Data source: PubChem BioAssay AID504808 (Drosophila RNAi Screening Center, 2011)
In all, the deposit lists about 21,000 reagents; this is a random part of those that have a named target and a result. Over the whole deposit, 18 (0.084%) were called active. 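Raw counts without plate normalisation, one of two replicates; the ratio scores behind the calls were not deposited.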 Unmarked entries are inactive. Reagents against one gene are numbered here. A plus sign joins genes that one reagent is predicted to hit. Not stated in the record: the amount of reagent, the time to read-out.

Screen: 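Genes whose loss lifts activity of an E2F-responsive reporter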 (primary screen)
System: Drosophila S2 cells
Reagents: long dsRNA against Drosophila genes
Read-out: 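Dual luciferase plate measurements; E2F-specific signal taken as firefly over Renilla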
Direction: E2F firefly: higher = more E2F reporter activity; Renilla normaliser: higher = more normaliser reporter signal
Call rule: 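a knock-down counted as active when the firefly/Renilla E2F signal rose above 50%, a threshold chosen arbitrarily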

For CG10561, the values are E2F firefly, rep 1 = 84101; Renilla normaliser, rep 1 = 3374. Rbf2 (Retinoblastoma-family protein 2) scored E2F firefly, rep 1 = 1.31e5; Renilla normaliser, rep 1 = 5706. Against Klp54D (Kinesin-like protein at 54D) the deposit lists E2F firefly, rep 1 = 1.39e5; Renilla normaliser, rep 1 = 5054. Depletion of CG11155 #1 gave: E2F firefly, rep 1 = 72030; Renilla normaliser, rep 1 = 2179. After knock-down of CG11155 #2, the screen gave E2F firefly, rep 1 = 1841; Renilla normaliser, rep 1 = 908. B52 scored E2F firefly, rep 1 = 80046; Renilla normaliser, rep 1 = 3279.

With knock-down of Adat1 (Adenosine deaminase, tRNA-specific 1) the results were E2F firefly, rep 1 = 1.09e5; Renilla normaliser, rep 1 = 4225. After knock-down of CG5039, the record shows E2F firefly, rep 1 = 1.14e5; Renilla normaliser, rep 1 = 5583. Against Pdha (Pyruvate dehydrogenase E1 alpha subunit) the deposit lists E2F firefly, rep 1 = 1.14e5; Renilla normaliser, rep 1 = 5743. With knock-down of Fit1 (Fermitin 1), the record shows E2F firefly, rep 1 = 71520; Renilla normaliser, rep 1 = 3033. For CG13135, the values are E2F firefly, rep 1 = 1.58e5; Renilla normaliser, rep 1 = 5551. CG34234 + Dh44-R2 gave E2F firefly, rep 1 = 152; Renilla normaliser, rep 1 = 41.

CG32647 #1 gave E2F firefly, rep 1 = 1.45e5; Renilla normaliser, rep 1 = 6239. Against CG32647 #2, the values are E2F firefly, rep 1 = 1.09e5; Renilla normaliser, rep 1 = 7044. Silencing of Uros1 (Uroporphyrinogen III synthase 1) resulted in: E2F firefly, rep 1 = 7296; Renilla normaliser, rep 1 = 744. Knock-down of CG7255 gave: E2F firefly, rep 1 = 72590; Renilla normaliser, rep 1 = 2946. Against CG11404, the entry reads E2F firefly, rep 1 = 1.15e5; Renilla normaliser, rep 1 = 5281. With knock-down of CG13005 the results were E2F firefly, rep 1 = 1.58e5; Renilla normaliser, rep 1 = 6361.

For TAF1C-like, the values are E2F firefly, rep 1 = 86300; Renilla normaliser, rep 1 = 3745.

2 entries from above, sorted by “E2F firefly, rep 1”, ascending:
Rbf2 (Retinoblastoma-family protein 2) | E2F firefly, rep 1: 1.31e5; Renilla normaliser, rep 1: 5706
Klp54D (Kinesin-like protein at 54D) | E2F firefly, rep 1: 1.39e5; Renilla normaliser, rep 1: 5054
